This passage reports binding results from paper PMC12435343.

Results are given in words; binding and its absence hold for the method and conditions named. Some entries that bind do so weakly or less than the wild type.

The target of test [1] is Nerve injury-induced protein 1 (NINJ1), human, endogenous in HK-2 cells (human (endogenous in HK-2)) (UniProt Q92982). Kind of test: native gel or EMSA; Native-PAGE of lysates of HK-2 cells and kidney tissues (150 mM NaCl, 1% digitonin, 50 mM Tris pH 7.5, protease inhibitor), blotted for endogenous NINJ1; mice sham or IRI (also AAV9-shNinj1, TDE); HK-2 normoxia or H/R (also siNINJ1, 5 mM glycine, ELK1 S383A, TDE).

The target of test [2] is Nerve injury-induced protein 1 (NINJ1), mouse, endogenous in renal tissue (mouse (endogenous in kidney tissue of C57BL/6J mice)) (UniProt O70131). Described as above.

B1: Nerve injury-induced protein 1 (NINJ1), human, endogenous in HK-2 cells (protein, UniProt Q92982 1-152)
chain: MDSGTEEYELNGGLPPGTPGSPDASPARWGWRHGPINVNHYASKKSAAESMLDIALLMANASQLKAVVEQGPSFAFYVPLVVLISISLVLQIGVGVLLIFLVKYDLNNPAKHAKLDFLNNLATGLVFIIVVVNIFITAFGVQKPLMDMAPQQ
Turning to B1, the binding result in test [1] was “binds”.

B2: Nerve injury-induced protein 1 (NINJ1), mouse, endogenous in renal tissue (protein, UniProt O70131 1-152)
chain: MESGTEEYELNGDLRPGSPGSPDALPPRWGLRNRPINVNHYANKKSAAESMLDIALLMANASQLKAVVEQGNDFAFFVPLVVLISISLVLQIGVGVLLIFLVKYDLNNPAKHAKLDFLNNLATGLVFIIVVVNIFITAFGVQKPVMDVAPRQ
Consider B2, for which the binding result in test [2] was “binds”.
